Measurements as given in article PMC7862700.
Only a part is listed here, and it is no random draw. For some of these results: At the low end of the ranking, values are background and their order means little. The list shows a part of the results. For some of these results: Construct or isoform of the protein are uncertain.

Tests used:
GABPA = target: T1, GABPA (UniProt Q06546); assay: DAPPL (digital affinity profiling via proximity ligation, sequencing); conditions: 10 mM Tris-HCl pH 7.5, 50 mM NaCl, 1 mM DTT, 4% glycerol, room temperature, 30 min; GST-TFs on glutathione beads, 16-mer random dsDNA library, 0.1% …; high values mean tight binding; double strand, one strand shown; scale: fold enrichment (6-mer frequency, TF over GST control)
T1 sequence: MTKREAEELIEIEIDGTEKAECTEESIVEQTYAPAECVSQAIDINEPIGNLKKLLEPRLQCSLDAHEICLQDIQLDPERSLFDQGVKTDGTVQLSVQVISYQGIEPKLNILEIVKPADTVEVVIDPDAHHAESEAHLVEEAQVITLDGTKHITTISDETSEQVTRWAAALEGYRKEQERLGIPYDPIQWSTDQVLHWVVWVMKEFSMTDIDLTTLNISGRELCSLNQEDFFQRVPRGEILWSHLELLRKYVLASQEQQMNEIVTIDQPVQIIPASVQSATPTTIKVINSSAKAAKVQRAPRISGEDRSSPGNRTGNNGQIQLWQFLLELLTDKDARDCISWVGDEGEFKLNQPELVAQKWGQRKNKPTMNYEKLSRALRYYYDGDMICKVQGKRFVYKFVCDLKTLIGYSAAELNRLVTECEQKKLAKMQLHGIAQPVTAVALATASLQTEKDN

ETS1 = target: T2, ETS1 (UniProt P14921); assay: as above; conditions: 10 mM Tris-HCl pH 7.5, 50 mM NaCl, 1 mM DTT, 4% glycerol, room temperature, 30 min; GST-TFs on glutathione beads, 16-mer random dsDNA library, 0.1% …; high values mean tight binding; double strand, one strand shown; scale: fold enrichment (6-mer frequency, TF over GST control)
T2 sequence: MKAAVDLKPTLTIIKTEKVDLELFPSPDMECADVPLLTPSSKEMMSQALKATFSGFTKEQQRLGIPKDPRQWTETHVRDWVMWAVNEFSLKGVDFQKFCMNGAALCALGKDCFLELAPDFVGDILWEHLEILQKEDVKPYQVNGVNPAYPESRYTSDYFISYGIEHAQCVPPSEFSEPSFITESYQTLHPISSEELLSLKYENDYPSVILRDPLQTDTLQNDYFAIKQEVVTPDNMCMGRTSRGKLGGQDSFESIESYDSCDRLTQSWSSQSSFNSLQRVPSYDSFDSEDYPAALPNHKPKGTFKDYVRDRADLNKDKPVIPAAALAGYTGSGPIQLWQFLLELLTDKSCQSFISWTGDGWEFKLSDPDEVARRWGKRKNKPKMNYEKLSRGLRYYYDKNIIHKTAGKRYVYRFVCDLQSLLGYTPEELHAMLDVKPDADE

Sequence	binding signal (GABPA)	binding signal (ETS1)
ACAATT	1.15	1.29
AAGATC	1.08	1.04
GATGCG	1.16	1.11
ATGGTG	1.1	1.24
AGGTTT	1.08	1.07
CCTCCT	1.57	1.6
AAGGTT	1.13	1.08
GATACA	0.994	0.962
CGCTCG	1.11	1.1
CGACTG	0.988	1.05
CACCAC	1.23	1.1
GGCTAT	0.995	0.99
TTTGGA	1.24	1.23
GAATGC	0.95	1.01
TGTTAC	1.39	1.46
TTCAAC	1.24	1.26
TCGTTG	0.882	1.01
ACATGC	1.33	1.23
CTACGT	1.18	1.16
CTCGGT	1.09	1.06
TAGATT	1.18	1.32

Record cards, as listed above.
ACATGC is listed with binding signal (GABPA): 1.33; binding signal (ETS1): 1.23
CTCGGT is listed with binding signal (GABPA): 1.09; binding signal (ETS1): 1.06

Additional entries.

Sequence	binding signal (GABPA)	binding signal (ETS1)
TCATGT	1.11	1.14
AACACG	1.1	1.2
GTTGAT	1.12	1.17
ATTAGT	0.974	1.04
TAGATA	1.1	1.05
TACACA	1.15	1.25
AGTACT	1.19	1.12
CGCTAT	1.07	1.14
TTACTA	1.36	1.28
TAGCGA	1.18	0.995
AACTCT	1.31	1.43
GCTACA	1.22	1.22
TGTACA	1.1	1.26
TGCCGG	0.998	1.03
ACGACA	1.18	1.19
TCCGGT	3.5	3.28
AGGATA	0.939	1.01
TCACCC	1.21	1.14
CTGAAG	1.11	0.962
CAATTC	1.19	1.32
